Values quoted from earlier work as cited in patent US10864215B2, “Use of phosphoinositide 3-kinase inhibitors for treatment of vascular malformations” (MEMORIAL SLOAN-KETTERING CANCER CENTER, priority 2015, dated 2020).
For at least one compound, name, drawing or mass did not settle the structure.

Experiments:
[1] = test system: HUVEC transduced with the most frequent TEK mutations; details: reference 11; cited from earlier work
VM patients = details: reference 11, pilot trial; cited from earlier work

In the case of `CO[C@H]1C[C@@H]2CC[C@@H](C)[C@@](O)(O2)C(=O)C(=O)N2CCCC[C@H]2C(=O)O[C@H]([C@H](C)C[C@@H]2CC[C@@H](O)[C@H](OC)C2)CC(=O)[C@H](C)/C=C(\C)[C@@H](O)[C@@H](OC)C(=O)[C@H](C)C[C@H](C)/C=C/C=C/C=C/1C` [rapamycin], the “efficacy in murine xenografts of TEK-mutant HUVEC” value [1] is given as “proved the efficacy” and the “clinical activity in VM patients” value (VM patients) is given as “showed clinical activity”.
